Results from patent US20070208011A1, “Supersaturated Benzodiazepine Solutions and Their Delivery” (priority 2005, published 2007).

Legend:
[1] = Nasal administration of diazepam and midazolam preparations in two healthy volunteers; settings: human, blood, other: intranasal, 5 mg
Protocol: Approximately 0.5 ml (2.5 mg) was dripped into each nostril over a period of 30 seconds.

clinical = settings: human, plasma, inhaled or intranasal, 5 mg
[2] = 40 mg/ml solutions, GF cosolvent composition at 50 vol % or above
[3] = Comparison of intranasal with published rectal diazepam concentration-time course; settings: intranasally, 5 mg

## CN1C(=O)CN=C(c2ccccc2)c2cc(Cl)ccc21 [DZP, diazepam]
[1]
  Tmax: 22.5 min
clinical
  Cmax: 162 ng/mL
[2]
  temporal stability (time solution remains stable): at least 40 min
[3]
  peak concentration: 162 ng/mL
